In patent publication US12024721B2, “Method of differentiating human pluripotent stem cells to podocytes” (Wisconsin Alumni Research Foundation, priority 2017, dated 2024):
For at least one compound, name, drawing or mass did not settle the structure.

How the values were obtained:
Format in all cases: cell-based, human
differentiating hPSCs = experiment: PAX2 and WT1 expression by flow cytometry at day 16 with or without dorsomorphin
[1] = test system: BMP-induced SMAD1/5/8 phosphorylation; experiment: Phosphorylated SMAD Western blot after dorsomorphin treatment of differentiating cells; settings: added after removal of CHIR99021, from day 3 to day 4
IMR90-4 hPSCs = experiment: WT1 expression at day 6 by Western blot after treatment with BMP7, RA, FGF2 from day 2 to day 6; settings: treatment day 2 to day 6 in PM2
Procedure: FIGS. 3A-3L Wnt signaling activation alone is sufficient to differentiate hPSCs into nephron progenitor cells. (A) Schematic of podocyte differentiation factor identification. Singularized IMR90-4 hPSCs were seeded on 12-well plates coated with Matrigel®, Synthemax® or vitronectin and expanded for 3 days in mTeSR®1. Podocyte differentiation was initiated with treatment using 6 μM CHIR (CHIR99021) for 48 h in PM1 followed by treatment with different combinations of 0.1 μM or 1 μM RA, 50 ng/mL BMP7 and 50 ng/mL FGF2 from day 2 to day 6 in PM2. (B) Cells at day 6 were assessed by Western blot for the expression level of WT1. (C) Expression level was quantified via Image J. The expression was first normalized to β-actin and then compared to WT1 expression in the absence of FGF2, RA and BMP7. (D, E) Expression of phosphorylated SMAD was assessed by Western blot after cells were treated with dorsomorphin (0 μM to 10 μM) from day 1 to day 3 or from day 3 to day 4. (F, G) Expression of BMP7 at day 1 and day 2 was verified by immunofluorescence and Western blot of cell lysate. (H, I) Cells were differentiated in the presence or absence of 1 μM dorsomorphin treatment from day 1 to day 3 and at day 16 were assessed for expression of PAX2 and WT1 by flow cytometry. Data were collected from three independent replicates and are plotted as mean±SEM. *p<0.05. ***p<0.001. […]

Row | Compound | WT1 and PAX2 expression level versus untreated control (differentiating hPSCs; 1 μM from day 1 to day 3, flow cytometry at day 16) | podocyte differentiation efficiency (differentiating hPSCs; BMP inhibitor treatment during differentiation) | SMAD phosphorylation at day 4 [1] | effect on WT1 expression in the hPSC-derived podocytes (IMR90-4 hPSCs)
1 | c1cc(-c2cnn3cc(-c4ccc(OCCN5CCCCC5)cc4)cnc23)ccn1 [dorsomorphin] | significantly lower | dramatically decreased | unaffected | 
2 | CC1=C(/C=C/C(C)=C/C=C/C(C)=C/C(=O)O)C(C)(C)CCC1 [RA, retinoic acid] |  |  |  | diminished
